Data from patent US20080119445A1, “METHODS OF FEMALE SEXUAL ENHANCEMENT” (priority 2004, published 2008).
Counter-ions that a name gives are not always drawn. Some of these results come from one statement about several compounds together.

Tested on: women
Test: drug-loaded flavored starch strip applied to the tongue of a person
Type: in vivo, human
Settings: starch strip on the tongue; women with normal estradiol and testosterone

| Structure (SMILES) | time period between application of the drug-loaded strip to the tongue to full effect [min] |
| --- | --- |
| CN1CC(=O)N2[C@H](c3ccc4c(c3)OCO4)c3[nH]c4ccccc4c3C[C@@H]2C1=O [tadalafil] | 15 to 20 |
| CCCc1nc(C)c2c(=O)[nH]c(-c3cc(S(=O)(=O)N4CCN(CC)CC4)ccc3OCC)nn12 [vardenafil hydrochloride] | 15 to 20 |
